Experimental data: PubChem BioAssay AID504786 (Drosophila RNAi Screening Center, 2011)

- Assay: 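Fly genes required for HIF-dependent transcription when hypoxia is mimicked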 (primary screen)
- System: Drosophila S2 cells with a stable HIF luciferase reporter
- Knock-down reagent: long dsRNA against Drosophila genes, about 0.2 µg dsRNA per well of a 384-well plate
- Duration: three days of knock-down, then 20 h of DFO before reading
- Challenge: desferrioxamine (DFO) at 100 µM, an iron chelator that mimics hypoxia, for 20 h
- Detection: 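Firefly luciferase driven by the mouse ldh-a hypoxia-response element, measured after 20 h of 100 µM DFO; z-scores per plate, higher means more signal lost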
- Scale: z-score: higher = stronger loss of HIF reporter signal
In all, the deposit lists about 21,000 reagents; this is a random part of those that have a named target and a result. 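Primary screen; positive scores mean lost reporter signal, so the sign may be inverted from the usual convention.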 The numbers tell different reagents against one gene apart. A plus sign joins genes that one reagent is predicted to hit.

target gene	reagent	z-score, replicate 1	z-score, replicate 2	z-score, replicate 3	z-score, replicate 4
SKIP (GeneID 42601)	1	-0.1	0.2		
SKIP (GeneID 42601)	2	0.3	-0.3		
SKIP (GeneID 42601)	3	0.3	-0.6		
SKIP (GeneID 42601)	4	-0.3	-0.6	0.3	-0.3
SKIP (GeneID 42601)	5	-0.5	0.2	-1	-0.2
Adgf-B (GeneID 39975)	1	-0.2	-0.7		
CG3091 (GeneID 31210)	1	-0.3	0.6		
CG15306 (GeneID 31961)	1	-0.1	-0.5		
CG15306 (GeneID 31961)	2	-0.2	0.5	-0.2	-0.2
RpS23 (GeneID 36576)	1	3.3	3.5		
Oseg2 (GeneID 38282)	1	-0.4	-0.4		
CG13531 (GeneID 37627)	1	-0.3	0.1		
CG1231 (GeneID 38060)	1	-0.3	-0.3		
CG32532 (GeneID 32943)	1	-0.5	-0.2		
CG32532 (GeneID 32943)	2	-0.3	-0.5		
CG32532 (GeneID 32943)	3	-0.4	-0.6		
ncd (GeneID 43517)	1	-0.3	-0.2		
Adh + Adhr	1	-0.3	-0.2		
Adh + Adhr	2	-0.2	-0.3		
Ube4A (GeneID 33932)	1	-0.1	0.1		
Adgf-C (GeneID 41680)	1	-0.2	-0.3		
CG13218 (GeneID 36177)	1	-0.1	0.1		
Kebab (GeneID 48440)	1	-0.2	-0.4		
sals (GeneID 41377)	1	-0.2	-0.6		
sals (GeneID 41377)	2	-0.3	0.8		
CG31445 (GeneID 326140)	1	-0.3	-0.2		
Rab35 (GeneID 33014)	1	-0.5	-0.4		
CG18128 (GeneID 37756)	1	-0.3	0.1		
fra (GeneID 36377)	1	-0.3	-0.3		
CG30457 (GeneID 36940)	1	-0.2	-0.4		
CG14147 (GeneID 39227)	1	-0.3	-0.2		
CG33290 (GeneID 2768993)	1	0.1	0.5		
CG9164 (GeneID 32467)	1	3.2	3.7		
CG9164 (GeneID 32467)	2	-0.3	-0.6		
FASN3 (GeneID 3355111)	1	-0.3	-0.2		
E(z) (GeneID 39203)	1	0	-0.5		
CG42676 (GeneID 2768999)	1	-0.3	-0.3		
CG42676 (GeneID 2768999)	2	-0.3	-0.6		
elB (GeneID 34844)	1	-0.2	-0.6		
elB (GeneID 34844)	2	0.8	-0.5		
CG33223 (GeneID 2768867)	1	-0.4	-0.3		
Trf (GeneID 34102)	1	-0.3	-0.4		
mAcon1 (GeneID 44149)	1	-0.2	-0.2		
Mo25 (GeneID 39858)	1	1.8	1.4		

Reprinted from the entries so far (9 entries):
target gene	reagent	z-score, replicate 1	z-score, replicate 2	z-score, replicate 3	z-score, replicate 4
CG13218 (GeneID 36177)	1	-0.1	0.1		
Kebab (GeneID 48440)	1	-0.2	-0.4		
sals (GeneID 41377)	1	-0.2	-0.6		
sals (GeneID 41377)	2	-0.3	0.8		
CG31445 (GeneID 326140)	1	-0.3	-0.2		
Rab35 (GeneID 33014)	1	-0.5	-0.4		
CG18128 (GeneID 37756)	1	-0.3	0.1		
fra (GeneID 36377)	1	-0.3	-0.3		
CG30457 (GeneID 36940)	1	-0.2	-0.4		

More results follow.
target gene	reagent	z-score, replicate 1	z-score, replicate 2	z-score, replicate 3	z-score, replicate 4
Drep3 (GeneID 36292)	1	-0.4	-0.3	0.5	-0.3
Drep3 (GeneID 36292)	2	-0.2	-0.3		
nxf4 (GeneID 40884)	1	-0.2	0		
Hs6st (GeneID 42380)	1	0.8	0.1		
Hs6st (GeneID 42380)	2	-0.6	-0.6		
Hs6st (GeneID 42380)	3	0.1	-0.7	-0.6	-0.2
spas (GeneID 42846)	1	0.1	-0.1		
CG32944 (GeneID 40560)	1	-0.3	-0.3		
CG32944 (GeneID 40560)	2	-0.2	-0.1		
pxb (GeneID 41899)	1	0.6	0.6		
pxb (GeneID 41899)	2	-0.5	-1		
pxb (GeneID 41899)	3	-0.4	-0.1		
Cpr67Fa2 (GeneID 39224)	1	-0.1	-0.4		
CG15207 (retired record) (GeneID 32023)	1	-0.3	-0.7	-0.1	-0.2
CG4286 (GeneID 37416)	1	0.1	0.2		
Edem2 (GeneID 34714)	1	-0.1	-0.6		
Oamb (GeneID 43982)	1	0.8	-0.1		
Oamb (GeneID 43982)	2	0.5	-0.5		
Oamb (GeneID 43982)	3	0	-0.2		
CG13008 (GeneID 32654)	1	-0.2	-0.3		
CG13008 (GeneID 32654)	2	-0.4	-0.3		
COX6AL2 (GeneID 40066)	1	-0.1	0.4		
Mos (GeneID 36404)	1	-0.3	-0.1		
CG32523 (GeneID 318071)	1	-0.1	-0.4		
lok (GeneID 35288)	1	-0.2	-0.1		
CG11905 (GeneID 39895)	1	-0.3	-0.4		
ImpE1 (GeneID 45879)	1	-0.2	0		
ImpE1 (GeneID 45879)	2	-0.2	0.1		
CG11178 (GeneID 32315)	1	0	-0.1		
Roc1a (GeneID 31014)	1	0.8	0.9		
CG32023 (GeneID 317827)	1	-0.2	-0.4		
CG9861 (GeneID 37692)	1	-0.1	-0.3		
CG3505 (GeneID 41777)	1	-0.3	-0.5		
CG1603 (GeneID 35683)	1	-0.2	0.2		
CG12535 (GeneID 31311)	1	-0.2	0.3		
CG13623 (GeneID 42926)	1	-0.6	-0.3		
RpL24 (GeneID 34754)	1	0.2	5.1		
CG10300 (GeneID 42798)	1	0	-0.1		
Grasp65 (GeneID 40177)	1	-0.3	-0.4		
